According to PubChem BioAssay AID1347075 (National Center for Advancing Translational Sciences (NCATS), 2019):
About 5,500 (1.4%) of roughly 400,000 compounds were called active. The shares of active, inactive and inconclusive entries below differ from those in the screen. Calls follow the shape of the dose curve; as a rule, active = well fitted cell-killing curve with a large enough effect; inconclusive = small, poorly fitted or top-dose-only effect, or effect the other way; inactive = flat fitted curve, though single readings scatter. Potencies beside an inconclusive call are fits to weak or partial responses and may not hold up.

Experiment: qHTS assay for MDR1-selective chemotherapeutics: Primary screen using the parental adenocarcinoma cell KB-3-1; also: nearly all actives have a fitted effect of over 60% in size
Conditions: KB-3-1 viability, CellTiter-Glo ATP luminescence, 72 h; activity change, negative = cytotoxic: at 46.1 µM (top of the series)
Summary of the method: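 Cells are dispensed, compounds pinned in, plates held at 37 °C for 72 h, then CellTiter-Glo is added and luminescence read after 10 minutes. Cell line: parental KB-3-1 in phenol-red-free DMEM, 10% FBS.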
% is scaled to controls: 0 for no effect and ±100 for the full control effect; potency is read from the fitted curve at half-maximal effect.

Compound	Potency	activity change, negative = cytotoxic
COc1ccc(C(c2nnnn2C2CCCC2)N2CCC(C)CC2)cc1 (stereo not drawn)	inconclusive: 20.6 µM [cytotoxic, single point]	
O=[N+]([O-])c1cc2c(c([N+](=O)[O-])c1)Nc1ccccc1O2	active: 23.1 µM	
Cc1[nH]n(-c2ccc([N+](=O)[O-])cc2)c(=O)c1/C=N/N1CCOCC1	inconclusive: 14.6 µM [cytotoxic, partial curve]	
Cc1occc1C(=O)N1CCN(c2ccc([N+](=O)[O-])cc2)CC1	inconclusive: 29.1 µM [cytotoxic, single point]	
CCOc1ccc2nc(N3CCCC(C(=O)NCCCN4CCCCC4)C3)sc2c1 (stereo not drawn)	inconclusive: 23.1 µM [cytotoxic, single point]	
CN(C)c1ccc(/C=C/c2cncc3ccccc23)cc1		inactive: 13.6%
Cc1ccc(-c2nn(-c3ccccc3)cc2CNCc2ccccc2)cc1	inconclusive: 29.1 µM [cytotoxic, single point]	
CC(=NO)c1ccc2c(c1)Cc1cc([N+](=O)[O-])ccc1-2	active: 14.6 µM	
COc1ccc(Cl)cc1NC(=O)CN(C)C(=O)c1sc2ccccc2c1Cl	inconclusive: 18.4 µM [cytotoxic, single point]	
Cc1cccc(C)c1NC(=O)Cn1c(SCC(=O)NCc2ccccc2)nc2ccccc21		inactive: -2.03%
O=S(=O)(Nc1cccnc1)c1cccnc1	inconclusive: 2.31 µM [cytotoxic, partial curve, poor fit]	
CCOC(=O)[C@]12CCCC=C1N(CCC1=CCCCC1)C(=O)[C@H](CC(=O)NCc1cccc3ccccc13)C2	inconclusive: 29.1 µM [cytotoxic, single point]	
Cc1cc(C(=O)Nc2nc(-c3ccccn3)cs2)ccc1[N+](=O)[O-]	inconclusive: 23.1 µM [cytotoxic, single point]	
Fc1ccccc1COc1ccc2ccccc2c1CNc1nn[nH]n1	inconclusive: 23.1 µM [cytotoxic, single point]	
COc1cccc(CC(NC(C)=O)C(=O)NC2CCN(S(=O)(=O)c3ccc(NC(C)=O)cc3)CC2)c1 (stereo not drawn)	inconclusive: 20.6 µM [rising, single point]	
O=C(NCc1cccc(Cl)c1)C1CCCN(c2ncnc3c2nc2n3CCCCC2)C1 (stereo not drawn)		inactive: -26.1%
CCc1ccc(OCC(=O)NCCc2ccc3c(c2)OCCO3)cc1	inconclusive: 5.17 µM [rising, partial curve, poor fit]	
COc1ccc(-n2c(=S)[nH]c3cc(C(=O)NCc4cccnc4)ccc3c2=O)c(OC)c1		inactive: -24.4%
OCCN(Cc1ccccc1)CC(O)COc1ccc(-c2ccccc2)cc1 (stereo not drawn)	inconclusive: 29.1 µM [cytotoxic, single point]	
O=C(CN(c1cccc(Br)c1)S(=O)(=O)c1ccccc1)N/N=C/c1cc([N+](=O)[O-])ccc1O	inconclusive: 18.4 µM [cytotoxic, single point]	
C(=N\Nc1nc(Nc2ccccc2)nc(Nc2ccccc2)n1)/c1ccncc1	inconclusive: 29.1 µM [rising, single point]	
CCOC(=O)C(CC)n1cnc2c(nnn2-c2cccc(OC)c2)c1=O (stereo not drawn)		inactive: -1.46%
COc1ccc2oc3cc(C)[n+]([O-])c(-c4ccc(Cl)cc4)c3c2c1	inconclusive: 29.1 µM [cytotoxic, single point]	

Compound	Potency	activity change, negative = cytotoxic
Cc1ccc(C2C(C#N)=C(N)Oc3cc4c(cc32)OCO4)cc1 (stereo not drawn)	inconclusive: 29.1 µM [cytotoxic, single point]	
O=C(NCCCN1CCOCC1)NC12CC3CC(CC(C3)C1)C2		inactive: 8.19%
COc1ccc(Cn2c(/C=C/c3ccccc3)nc3ccccc32)cc1	inconclusive: 23.1 µM [cytotoxic, single point]	
Cc1c(Nc2nc(-c3cccc([N+](=O)[O-])c3)cs2)c(=O)n(-c2ccccc2)n1C		inactive: 2.28%
COc1ccccc1C(=O)Nc1ccc(Cc2ccncc2)cc1	inconclusive: 29.1 µM [cytotoxic, single point]	
COc1ccc(-c2oc(=O)c3cc(OC)c(OC)cc3c2-c2cc(F)cc(OC)c2)cc1		inactive: -2.31%
CC(C)CCN1CCC(CN2C(=O)C(=O)NC[C@@H]2Cc2ccccc2)CC1	inconclusive: 20.6 µM [cytotoxic, single point]	
Cc1ccc(-c2nc3ncccc3o2)cc1NC(=O)c1ccc([N+](=O)[O-])o1	inconclusive: 14.6 µM [cytotoxic, partial curve, poor fit]	
C/C(=N\N=C(N)N)c1ccc(C)c(C)c1	inconclusive: 20.6 µM [cytotoxic, single point]	
CC(=O)Oc1ccc2ccccc2c1C(NC(=O)Cc1ccccc1)c1ccc(Cl)cc1 (stereo not drawn)	inconclusive: 25.9 µM [cytotoxic, single point]	
CCOc1ccccc1NC(=O)Nc1cc2c(cc1N1CCCCC1)n(CC)c(=O)n2CC	inconclusive: 29.1 µM [cytotoxic, single point]	
CCOC(=O)c1ccc(NC(=O)CSc2nccn2-c2cc(C)cc(C)c2)cc1	inconclusive: 0.206 µM [cytotoxic, full curve]	
COc1ccc(C(=O)NCCC(=O)N2CCC3(CC2)NCCc2[nH]cnc23)cc1		inactive: 19.3%
Cc1cc(C)cc(OCC(=O)Nc2ccncc2)c1	inconclusive: 20.6 µM [cytotoxic, partial curve, poor fit]	
COc1cc(/C=C/C(=O)Nc2ccc(N3CCCCC3)c(S(=O)(=O)Nc3ccccc3Cl)c2)cc(OC)c1OC		inactive: -6.51%
CCOc1ccccc1CNCc1c(C(=O)O)n(Cc2ccc(F)cc2)c2cc(C)ccc12	inconclusive: 3.26 µM [cytotoxic, full curve]	
Cc1cc(N2CCOCC2)nc2ccc(NC(=S)N3CCN(c4ccccc4)CC3)cc12	inconclusive: 29.1 µM [cytotoxic, single point]	
CCN(CC)C(=O)CSc1nnc2nnc3cc(C)ccc3n12		inactive: -16.3%
O=C(NCCN1CCOCC1)c1ccc2c(c1)N(Cc1ccc(F)cc1)C(=O)CS2	inconclusive: 29.1 µM [cytotoxic, single point]	
Cc1ccc(C)c(S(=O)(=O)Nc2ccccc2C(=O)Nc2cc(C)on2)c1	inconclusive: 14.6 µM [cytotoxic, partial curve, poor fit]	
COCCOC(=O)c1c(C)oc2ccc(OS(C)(=O)=O)cc12	inconclusive: 23.1 µM [cytotoxic, single point]	
CCc1nnc(NC(=O)c2ccc(Cl)c(S(=O)(=O)N3CCc4ccccc43)c2)s1	active: 20.6 µM	
COc1ccc(N2C(=O)/C(=C\c3ccco3)N=C2SCC(=O)NC(C)(C)C)cc1Cl	inconclusive: 29.1 µM [cytotoxic, single point]	

Gathered by group, the compounds so far with an aryl thioether with sulfur outside any ring.
Compound	Potency	activity change, negative = cytotoxic
Cc1cccc(C)c1NC(=O)Cn1c(SCC(=O)NCc2ccccc2)nc2ccccc21		inactive: -2.03%
CCOC(=O)c1ccc(NC(=O)CSc2nccn2-c2cc(C)cc(C)c2)cc1	inconclusive: 0.206 µM [cytotoxic, full curve]	
CCN(CC)C(=O)CSc1nnc2nnc3cc(C)ccc3n12		inactive: -16.3%

Continuation:

Compound	Potency	activity change, negative = cytotoxic
Cc1ccc(C)c(-c2cc(C(=O)NC3CC3)c3ccccc3n2)c1		inactive: -13.5%
COC(=O)c1c(N)sc(Cc2ccccc2)c1C		inactive: -11.7%
O=C(O)CCCNC(=O)CCn1nnc2ccccc2c1=O		inactive: -10.6%
COc1cccc(-c2csc(N3CCN(C(=O)Nc4ccc(Cl)cc4)CC3)n2)c1		inactive: -25.4%
CC1=C(C(=O)Nc2cc(C(=O)N3CCN(c4ccc(Cl)cc4)CC3)ccc2C)SCCO1		inactive: 13.1%
O=C(O)CCc1nnc2n(Cc3ccc(F)cc3)c(=O)c3ccccc3n12	inconclusive: 2.91 µM [rising, full curve]	
COc1ccc(Nc2nc(N3CCCCC3)c3ccccc3n2)cc1	inconclusive: 10.3 µM [cytotoxic, partial curve, poor fit]	
O=C(O)c1c(NC(=O)c2cccc3ccccc23)sc2c1CCC2	inconclusive: 16.4 µM [cytotoxic, partial curve, poor fit]	
C=CCSc1nnc(NC(=O)COc2ccccc2)s1		inactive: 4.92%
C[C@@H]1CCCCO[C@@H](CN(C)Cc2ccc(Cl)c(Cl)c2)[C@@H](C)CN([C@H](C)CO)C(=O)c2cc(NC(=O)Nc3ccccc3)ccc2O1	inconclusive: 32.6 µM [cytotoxic, partial curve, poor fit]	
CC1=CC2=NC(=O)/C(=C\c3cc(C)n(-c4ccccc4)c3C)C(=N)N2O1		inconclusive: 3.89%
CN1C(=O)Cc2cc(S(=O)(=O)CCC(=O)Nc3ccc(OC(F)(F)F)cc3)ccc21		inactive: -5.41%
CCN(C(=O)C1CCCN(c2ncnc3c2nc2n3CCCCC2)C1)c1cccc(C)c1 (stereo not drawn)	inconclusive: 29.1 µM [cytotoxic, single point]	
COc1ccc(-c2cc(C(=O)NCc3ccco3)c3ccccc3n2)cc1OC	inconclusive: 0.231 µM [rising, full curve]	
O=[N+]([O-])c1ccc(Oc2cccc(Br)c2)c2ccncc12	inconclusive: 18.4 µM [cytotoxic, single point]	
NS(=O)(=O)c1ccc(Nc2nc(-c3ccccc3)cs2)cc1	inconclusive: 11.6 µM [cytotoxic, partial curve]	
Cc1nn(-c2ccccc2Cl)c(Cl)c1/C=N/Nc1nc2ccccc2s1	inconclusive: 8.2 µM [cytotoxic, partial curve]	
Cc1cccc(C(=O)Nc2nnc(-c3ccco3)o2)c1	inconclusive: 29.1 µM [cytotoxic, single point]	
CCOc1ccc(S(=O)(=O)N(CC)CC(=O)N2CCOCC2)cc1C		inactive: 3.8%
CC(Nc1nc(-c2ccccc2F)nc2ccccc12)c1ccccc1 (stereo not drawn)		inactive: 2.87%
CCCCCCCCN1C(=O)[C@H](CC(=O)NCc2cccs2)C[C@@]2(C(=O)OC)CCCCC=C12	inconclusive: 16.4 µM [cytotoxic, single point]	
COc1ccc(/C=C(\C#N)C(=O)OCC(=O)NCc2ccccc2)cc1	inconclusive: 23.1 µM [rising, single point]	
